The supplement of paper PMC12819154, “High-throughput peptide-centric local stability assay extends protein–ligand identification to membrane proteins, tissues and bacteria” (Nature Structural & Molecular Biology, 2025)
The other results are listed elsewhere or left out. Most values lie at the level of the controls, where differences are scatter.

Sequences of proteins named here, by UniProt entry; tags and fusion partners are left off. A change or cut given only in a name is not applied to a line headed by its entry.
UniProt P46889: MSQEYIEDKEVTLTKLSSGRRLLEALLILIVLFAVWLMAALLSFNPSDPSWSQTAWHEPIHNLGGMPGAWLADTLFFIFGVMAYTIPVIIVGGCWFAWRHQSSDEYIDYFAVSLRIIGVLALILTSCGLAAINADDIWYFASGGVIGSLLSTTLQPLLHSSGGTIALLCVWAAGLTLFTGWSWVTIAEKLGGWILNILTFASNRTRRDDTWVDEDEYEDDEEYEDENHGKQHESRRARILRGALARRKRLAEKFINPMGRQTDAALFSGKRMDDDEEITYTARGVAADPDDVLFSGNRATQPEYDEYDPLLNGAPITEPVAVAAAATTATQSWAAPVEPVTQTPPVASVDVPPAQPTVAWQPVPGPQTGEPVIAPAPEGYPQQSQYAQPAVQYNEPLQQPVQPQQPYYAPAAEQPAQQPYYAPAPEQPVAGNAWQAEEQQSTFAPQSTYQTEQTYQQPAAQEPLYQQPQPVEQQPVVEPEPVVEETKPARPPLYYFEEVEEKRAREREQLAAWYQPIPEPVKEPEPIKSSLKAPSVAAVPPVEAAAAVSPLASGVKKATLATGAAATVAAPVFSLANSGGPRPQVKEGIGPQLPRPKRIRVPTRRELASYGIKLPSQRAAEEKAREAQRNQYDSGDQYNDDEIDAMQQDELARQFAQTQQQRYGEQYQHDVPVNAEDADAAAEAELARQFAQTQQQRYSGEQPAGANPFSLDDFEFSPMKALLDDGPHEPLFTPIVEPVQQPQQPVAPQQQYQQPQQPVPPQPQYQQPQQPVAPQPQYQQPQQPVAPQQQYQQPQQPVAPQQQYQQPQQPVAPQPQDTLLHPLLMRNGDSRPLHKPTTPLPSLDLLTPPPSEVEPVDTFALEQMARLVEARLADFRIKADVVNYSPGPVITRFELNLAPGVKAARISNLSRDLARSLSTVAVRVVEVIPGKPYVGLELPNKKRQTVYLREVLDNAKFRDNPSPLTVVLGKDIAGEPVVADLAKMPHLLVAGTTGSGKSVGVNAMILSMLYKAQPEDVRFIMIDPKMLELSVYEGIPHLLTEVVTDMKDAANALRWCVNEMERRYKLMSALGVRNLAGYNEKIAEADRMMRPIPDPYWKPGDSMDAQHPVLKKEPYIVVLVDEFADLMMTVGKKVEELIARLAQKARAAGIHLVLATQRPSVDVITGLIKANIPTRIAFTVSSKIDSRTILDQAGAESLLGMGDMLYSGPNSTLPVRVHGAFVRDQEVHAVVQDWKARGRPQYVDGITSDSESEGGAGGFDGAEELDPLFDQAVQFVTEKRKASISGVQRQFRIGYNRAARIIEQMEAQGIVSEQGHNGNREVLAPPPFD
UniProt P46474: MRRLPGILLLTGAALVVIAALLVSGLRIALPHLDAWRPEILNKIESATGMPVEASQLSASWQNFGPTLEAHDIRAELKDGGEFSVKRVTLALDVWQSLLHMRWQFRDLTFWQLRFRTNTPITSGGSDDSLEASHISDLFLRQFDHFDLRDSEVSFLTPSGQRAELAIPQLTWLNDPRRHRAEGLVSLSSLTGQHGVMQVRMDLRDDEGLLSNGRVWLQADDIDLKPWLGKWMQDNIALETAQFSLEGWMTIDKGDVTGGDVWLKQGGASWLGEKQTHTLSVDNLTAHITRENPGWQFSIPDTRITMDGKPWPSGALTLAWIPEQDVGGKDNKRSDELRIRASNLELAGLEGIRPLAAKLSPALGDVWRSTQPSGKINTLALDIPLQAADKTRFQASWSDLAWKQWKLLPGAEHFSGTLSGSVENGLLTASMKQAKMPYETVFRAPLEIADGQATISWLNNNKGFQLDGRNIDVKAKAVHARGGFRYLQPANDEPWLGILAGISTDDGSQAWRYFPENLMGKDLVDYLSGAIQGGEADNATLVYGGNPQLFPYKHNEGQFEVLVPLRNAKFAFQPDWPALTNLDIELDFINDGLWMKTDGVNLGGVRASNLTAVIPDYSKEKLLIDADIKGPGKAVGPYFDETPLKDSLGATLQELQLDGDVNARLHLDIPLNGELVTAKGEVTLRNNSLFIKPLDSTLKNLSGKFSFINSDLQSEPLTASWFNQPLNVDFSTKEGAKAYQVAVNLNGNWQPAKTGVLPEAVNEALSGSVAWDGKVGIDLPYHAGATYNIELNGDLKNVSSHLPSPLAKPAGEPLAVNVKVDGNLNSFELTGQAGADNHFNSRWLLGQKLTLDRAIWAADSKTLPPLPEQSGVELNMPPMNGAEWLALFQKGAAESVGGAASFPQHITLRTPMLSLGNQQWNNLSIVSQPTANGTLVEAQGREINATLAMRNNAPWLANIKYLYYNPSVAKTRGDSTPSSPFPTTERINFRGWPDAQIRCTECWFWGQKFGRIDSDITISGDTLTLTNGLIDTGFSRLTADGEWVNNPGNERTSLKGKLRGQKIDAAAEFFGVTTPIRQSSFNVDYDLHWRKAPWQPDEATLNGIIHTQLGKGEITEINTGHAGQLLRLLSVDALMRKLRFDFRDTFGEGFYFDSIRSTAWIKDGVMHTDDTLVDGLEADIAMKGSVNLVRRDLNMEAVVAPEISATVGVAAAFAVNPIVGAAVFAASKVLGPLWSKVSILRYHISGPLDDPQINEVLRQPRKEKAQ
UniProt P64474: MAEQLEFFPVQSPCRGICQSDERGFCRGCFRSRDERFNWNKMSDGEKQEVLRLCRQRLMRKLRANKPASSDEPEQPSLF
UniProt P75838, whole entry: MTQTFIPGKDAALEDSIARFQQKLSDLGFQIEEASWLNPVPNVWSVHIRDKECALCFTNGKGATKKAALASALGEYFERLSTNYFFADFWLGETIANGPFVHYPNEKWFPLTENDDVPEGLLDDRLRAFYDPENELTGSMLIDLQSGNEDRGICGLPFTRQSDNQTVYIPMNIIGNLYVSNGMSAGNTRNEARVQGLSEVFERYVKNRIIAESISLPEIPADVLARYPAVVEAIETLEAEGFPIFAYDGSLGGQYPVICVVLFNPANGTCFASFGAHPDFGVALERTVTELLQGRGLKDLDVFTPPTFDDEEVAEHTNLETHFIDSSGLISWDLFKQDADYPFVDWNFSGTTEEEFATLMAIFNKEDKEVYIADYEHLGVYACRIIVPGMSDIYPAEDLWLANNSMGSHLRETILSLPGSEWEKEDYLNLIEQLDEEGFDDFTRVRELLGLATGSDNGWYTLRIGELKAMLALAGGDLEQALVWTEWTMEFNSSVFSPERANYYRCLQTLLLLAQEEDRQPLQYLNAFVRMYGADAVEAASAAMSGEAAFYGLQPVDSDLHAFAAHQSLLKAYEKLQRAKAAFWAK
UniProt P46883: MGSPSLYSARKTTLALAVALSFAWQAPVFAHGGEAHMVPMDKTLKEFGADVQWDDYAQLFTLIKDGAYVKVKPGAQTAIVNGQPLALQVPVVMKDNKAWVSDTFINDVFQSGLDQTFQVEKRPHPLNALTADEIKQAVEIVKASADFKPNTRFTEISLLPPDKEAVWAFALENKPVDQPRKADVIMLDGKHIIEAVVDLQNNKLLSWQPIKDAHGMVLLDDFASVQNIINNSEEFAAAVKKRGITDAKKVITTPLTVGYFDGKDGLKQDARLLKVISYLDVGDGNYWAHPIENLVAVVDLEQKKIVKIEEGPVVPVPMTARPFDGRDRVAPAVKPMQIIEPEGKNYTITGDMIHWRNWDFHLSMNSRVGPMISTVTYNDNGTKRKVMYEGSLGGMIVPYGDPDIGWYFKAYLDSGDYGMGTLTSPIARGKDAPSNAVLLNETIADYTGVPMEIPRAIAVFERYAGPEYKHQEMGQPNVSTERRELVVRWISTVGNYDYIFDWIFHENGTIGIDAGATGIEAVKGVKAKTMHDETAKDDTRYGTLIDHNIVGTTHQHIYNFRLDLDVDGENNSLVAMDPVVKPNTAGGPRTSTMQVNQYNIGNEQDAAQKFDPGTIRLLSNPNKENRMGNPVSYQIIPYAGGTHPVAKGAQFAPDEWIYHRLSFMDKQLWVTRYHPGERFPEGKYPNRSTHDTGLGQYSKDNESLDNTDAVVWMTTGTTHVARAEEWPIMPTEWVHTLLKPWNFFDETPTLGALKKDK
UniProt P52613: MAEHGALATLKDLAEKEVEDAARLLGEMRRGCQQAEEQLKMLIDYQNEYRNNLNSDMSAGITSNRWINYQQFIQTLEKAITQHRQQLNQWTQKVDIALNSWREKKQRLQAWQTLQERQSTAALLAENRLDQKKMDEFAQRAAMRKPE
UniProt P75796: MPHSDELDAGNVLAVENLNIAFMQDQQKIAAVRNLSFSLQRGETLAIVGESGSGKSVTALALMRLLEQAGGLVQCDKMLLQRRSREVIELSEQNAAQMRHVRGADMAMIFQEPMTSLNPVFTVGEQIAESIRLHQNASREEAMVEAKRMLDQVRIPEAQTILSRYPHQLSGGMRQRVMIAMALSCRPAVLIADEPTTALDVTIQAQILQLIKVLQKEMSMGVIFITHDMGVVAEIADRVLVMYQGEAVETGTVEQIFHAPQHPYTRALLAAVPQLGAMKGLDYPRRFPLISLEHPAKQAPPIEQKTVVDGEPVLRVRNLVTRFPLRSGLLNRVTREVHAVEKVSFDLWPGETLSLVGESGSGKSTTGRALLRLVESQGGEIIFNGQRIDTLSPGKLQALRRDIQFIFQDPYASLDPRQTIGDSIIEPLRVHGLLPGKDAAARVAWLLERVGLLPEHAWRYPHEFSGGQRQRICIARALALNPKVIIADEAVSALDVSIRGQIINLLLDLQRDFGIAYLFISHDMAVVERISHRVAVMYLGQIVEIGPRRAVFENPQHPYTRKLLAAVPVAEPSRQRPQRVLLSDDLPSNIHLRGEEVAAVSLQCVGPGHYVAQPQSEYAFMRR
UniProt P75682: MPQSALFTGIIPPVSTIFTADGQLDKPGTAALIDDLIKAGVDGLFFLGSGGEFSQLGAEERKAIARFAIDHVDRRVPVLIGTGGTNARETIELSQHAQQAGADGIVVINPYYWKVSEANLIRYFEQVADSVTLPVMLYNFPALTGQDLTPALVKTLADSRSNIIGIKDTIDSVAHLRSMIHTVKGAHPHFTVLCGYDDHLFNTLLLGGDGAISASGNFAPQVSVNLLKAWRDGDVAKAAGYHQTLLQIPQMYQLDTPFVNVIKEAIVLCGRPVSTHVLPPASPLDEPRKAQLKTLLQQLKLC
UniProt P64602: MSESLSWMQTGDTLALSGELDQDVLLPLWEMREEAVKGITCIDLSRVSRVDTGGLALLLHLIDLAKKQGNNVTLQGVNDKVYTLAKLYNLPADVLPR
UniProt P75737: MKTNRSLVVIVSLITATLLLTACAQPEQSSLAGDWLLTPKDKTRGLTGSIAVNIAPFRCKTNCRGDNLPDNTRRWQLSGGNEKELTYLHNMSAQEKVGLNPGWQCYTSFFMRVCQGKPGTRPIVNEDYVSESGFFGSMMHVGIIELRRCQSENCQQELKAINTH
UniProt P75785: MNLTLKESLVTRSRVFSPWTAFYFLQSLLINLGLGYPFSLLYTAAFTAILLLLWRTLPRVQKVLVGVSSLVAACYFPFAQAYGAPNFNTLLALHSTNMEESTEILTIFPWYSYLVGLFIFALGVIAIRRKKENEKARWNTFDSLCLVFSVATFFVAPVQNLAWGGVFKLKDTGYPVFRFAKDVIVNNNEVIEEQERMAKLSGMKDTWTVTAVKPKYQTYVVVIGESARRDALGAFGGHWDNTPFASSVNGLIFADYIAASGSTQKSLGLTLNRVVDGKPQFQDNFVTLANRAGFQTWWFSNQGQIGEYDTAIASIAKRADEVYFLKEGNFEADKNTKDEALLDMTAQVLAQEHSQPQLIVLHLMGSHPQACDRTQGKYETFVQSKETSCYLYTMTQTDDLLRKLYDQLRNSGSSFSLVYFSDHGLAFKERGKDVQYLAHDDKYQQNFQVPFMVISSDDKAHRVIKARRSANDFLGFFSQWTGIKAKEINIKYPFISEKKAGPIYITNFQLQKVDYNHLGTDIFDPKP
UniProt P71298: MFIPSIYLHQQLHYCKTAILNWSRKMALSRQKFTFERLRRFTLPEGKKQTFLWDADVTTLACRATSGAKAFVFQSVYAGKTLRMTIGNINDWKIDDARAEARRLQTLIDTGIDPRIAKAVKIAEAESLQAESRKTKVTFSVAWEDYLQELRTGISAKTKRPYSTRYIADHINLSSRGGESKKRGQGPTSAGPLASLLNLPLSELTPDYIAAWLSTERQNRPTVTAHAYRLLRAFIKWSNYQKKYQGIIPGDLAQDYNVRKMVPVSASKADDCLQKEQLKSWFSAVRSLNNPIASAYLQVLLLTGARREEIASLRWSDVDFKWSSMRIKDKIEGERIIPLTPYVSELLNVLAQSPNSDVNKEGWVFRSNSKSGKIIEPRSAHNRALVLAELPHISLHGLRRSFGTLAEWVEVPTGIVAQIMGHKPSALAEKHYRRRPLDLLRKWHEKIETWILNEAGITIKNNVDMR
UniProt P52076: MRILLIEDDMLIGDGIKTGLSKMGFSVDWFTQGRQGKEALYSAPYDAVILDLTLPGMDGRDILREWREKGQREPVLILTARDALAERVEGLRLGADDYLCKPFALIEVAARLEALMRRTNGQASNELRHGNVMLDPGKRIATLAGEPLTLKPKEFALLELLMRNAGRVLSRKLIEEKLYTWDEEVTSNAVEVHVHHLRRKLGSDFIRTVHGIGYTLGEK

What follows are targets tested with CC1(C)S[C@@H]2[C@H](NC(=O)[C@H](N)c3ccccc3)C(=O)N2[C@H]1C(=O)O [ampicillin] (assay: log2 fold change of tryptic peptide abundance, ligand vs vehicle (limited proteolysis) (log2 ratio); higher = more trypsin-susceptible (destabilized)). Details: ligand concentration: 10 uM; sample: E. coli crude lysate.

With “UniProt P51024 (peptide sequence: KIFVDKLTQAQLINGR, peptide start residue: 101)” as the target, how does the log2 fold change read?
Its log2 fold change is 0.144.

For “UniProt P46889 (peptide sequence: AAGIHLVLATQRPSVDVITGLIK, peptide start residue: 1147)”, which log2 fold change is on record?
The log2 fold change was 0.53.

With “UniProt P52643 (peptide sequence: GALIDSQAAIEALKNQK, peptide start residue: 235)” as the target, how does the log2 fold change read?
The log2 fold change was -0.0754.

How did the log2 fold change turn out when “UniProt P46474 (peptide sequence: AIWAADSK, peptide start residue: 854)” was run?
The log2 fold change was -0.211.

For “UniProt P75713 (peptide sequence: HGNFALLTPDGLVK, peptide start residue: 23)”, which log2 fold change is on record?
The log2 fold change was -0.455.

For “UniProt P64474 (peptide sequence: MSDGEKQEVLR, peptide start residue: 42)”, which log2 fold change is on record?
Its log2 fold change is -0.136.

Which log2 fold change does the source give for “UniProt P75838 (peptide sequence: DKECALCFTNGK, peptide start residue: 50)” here?
The log2 fold change was 0.175.

How did the log2 fold change turn out when “UniProt P56579 (peptide sequence: MGIQLEQK, peptide start residue: 172)” was run?
Its log2 fold change is -0.105.

“UniProt P46883 (peptide sequence: NWDFHLSMNSR, peptide start residue: 357)” was tested. Which log2 fold change did it give?
Its log2 fold change is -0.755.

With “UniProt P52636 (peptide sequence: NAESCIDCGK, peptide start residue: 247)” as the target, how does the log2 fold change read?
Its log2 fold change is 0.531.

“UniProt P52613 (peptide sequence: QSTAALLAENR, peptide start residue: 118)” was tested. Which log2 fold change did it give?
The log2 fold change was 0.497.

How did the log2 fold change turn out when “UniProt P75796 (peptide sequence: LHQNASREEAMVEAKR, peptide start residue: 133)” was run?
Its log2 fold change is -0.448.

For “UniProt P75682 (peptide sequence: SNIIGIKDTIDSVAHLR, peptide start residue: 161)”, which log2 fold change is on record?
Its log2 fold change is -0.245.

Which log2 fold change does the source give for “UniProt P52612 (peptide sequence: GQHVLLIMDSLTR, peptide start residue: 264)” here?
Its log2 fold change is -0.331.

Which log2 fold change does the source give for “UniProt P75863 (peptide sequence: FTPSPVHDGLHLTAPDGSSAYVR, peptide start residue: 57)” here?
The log2 fold change was 0.235.

Which log2 fold change does the source give for “UniProt P64602 (peptide sequence: LYNLPADVLPR, peptide start residue: 87)” here?
The log2 fold change was -0.214.

For “UniProt P67662 (peptide sequence: FVTNDPMTLVR, peptide start residue: 218)”, which log2 fold change is on record?
Its log2 fold change is -0.669.

“UniProt P75811 (peptide sequence: IIQATLEAVK, peptide start residue: 13)” was tested. Which log2 fold change did it give?
Its log2 fold change is -0.203.

“UniProt P75737 (peptide sequence: ELTYLHNMSAQEK, peptide start residue: 84)” was tested. Which log2 fold change did it give?
The log2 fold change was -0.203.

How did the log2 fold change turn out when “UniProt P75849 (peptide sequence: LAALVDPGGDAEK, peptide start residue: 25)” was run?
The log2 fold change was -0.185.

“UniProt P75785 (peptide sequence: LSGMKDTWTVTAVKPK, peptide start residue: 200)” was tested. Which log2 fold change did it give?
The log2 fold change was -1.49.

Which log2 fold change does the source give for “UniProt P75791 (peptide sequence: FTLADLNIHGKR, peptide start residue: 404)” here?
The log2 fold change was -0.323.

With “UniProt P71298 (peptide sequence: KYQGIIPGDLAQDYNVR, peptide start residue: 243)” as the target, how does the log2 fold change read?
The log2 fold change was 0.265.

How did the log2 fold change turn out when “UniProt P52076 (peptide sequence: TVHGIGYTLGEK, peptide start residue: 208)” was run?
The log2 fold change was -0.236.

With “UniProt P68398 (peptide sequence: EVPVGAVLVHNNR, peptide start residue: 27)” as the target, how does the log2 fold change read?
The log2 fold change was -0.344.

Which log2 fold change does the source give for “UniProt P75794 (peptide sequence: HVADAPFK, peptide start residue: 184)” here?
Its log2 fold change is 0.502.

How did the log2 fold change turn out when “UniProt P75745 (peptide sequence: QSGISHCGALDMPALR, peptide start residue: 23)” was run?
Its log2 fold change is -0.129.

For “UniProt P54746 (peptide sequence: GVGLLGK, peptide start residue: 706)”, which log2 fold change is on record?
The log2 fold change was -0.0929.

For “UniProt P52095 (peptide sequence: KYTFCTPGHMGGTAYQK, peptide start residue: 144)”, which log2 fold change is on record?
Its log2 fold change is -0.256.

How did the log2 fold change turn out when “UniProt P52074 (peptide sequence: YHNLLDIGR, peptide start residue: 91)” was run?
The log2 fold change was -0.198.
